Source: PMC11001985
These are yes or no findings as the source states them, for the method shown. Some results given as binding are weak or reduced against the parent protein; the word gives no strength. Where a sequence is shown, tags or fusion partners need not be part of it.

Assays:
[1] = biological target: T1, Endoglin (ENG/CD105) K285R mutant, 3×FLAG-tagged, expressed on Hela cells (human) (UniProt P17813); assay: binding of soluble ligand to living cells, Western blot of the cell lysate; Hela cells transfected with ENG-3×FLAG (WT or K285R), starved overnight, treated with OPA-S-S-alkyne at various concentrations (10 min, room temperature, quenched with 1 M glycine) or untreated, washed, incubated with 25 ng/ml BMP9 at 4 °C for 2 h, washed, lysed; BMP9 detected by anti-BMP9 blot; only the binder purified
T1 sequence: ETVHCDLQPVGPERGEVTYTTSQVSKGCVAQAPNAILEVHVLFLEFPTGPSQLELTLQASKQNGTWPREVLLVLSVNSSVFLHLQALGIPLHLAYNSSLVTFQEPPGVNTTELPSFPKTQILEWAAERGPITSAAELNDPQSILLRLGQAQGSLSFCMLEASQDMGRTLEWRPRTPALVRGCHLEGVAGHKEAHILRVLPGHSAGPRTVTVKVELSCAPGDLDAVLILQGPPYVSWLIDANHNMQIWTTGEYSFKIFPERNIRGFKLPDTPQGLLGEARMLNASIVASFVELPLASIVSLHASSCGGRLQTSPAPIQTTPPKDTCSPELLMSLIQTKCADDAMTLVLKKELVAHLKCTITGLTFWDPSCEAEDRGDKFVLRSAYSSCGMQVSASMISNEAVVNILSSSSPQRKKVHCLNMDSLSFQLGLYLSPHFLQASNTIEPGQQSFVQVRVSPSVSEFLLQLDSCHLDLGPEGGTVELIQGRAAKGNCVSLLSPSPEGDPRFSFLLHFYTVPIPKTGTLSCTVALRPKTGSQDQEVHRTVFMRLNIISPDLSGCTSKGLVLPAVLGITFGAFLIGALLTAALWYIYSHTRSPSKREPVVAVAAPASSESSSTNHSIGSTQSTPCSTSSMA

[2] = biological target: T2, Endoglin (ENG/CD105), wild type, 3×FLAG-tagged, expressed on Hela cells (human) (UniProt P17813); assay: as above
T2 sequence: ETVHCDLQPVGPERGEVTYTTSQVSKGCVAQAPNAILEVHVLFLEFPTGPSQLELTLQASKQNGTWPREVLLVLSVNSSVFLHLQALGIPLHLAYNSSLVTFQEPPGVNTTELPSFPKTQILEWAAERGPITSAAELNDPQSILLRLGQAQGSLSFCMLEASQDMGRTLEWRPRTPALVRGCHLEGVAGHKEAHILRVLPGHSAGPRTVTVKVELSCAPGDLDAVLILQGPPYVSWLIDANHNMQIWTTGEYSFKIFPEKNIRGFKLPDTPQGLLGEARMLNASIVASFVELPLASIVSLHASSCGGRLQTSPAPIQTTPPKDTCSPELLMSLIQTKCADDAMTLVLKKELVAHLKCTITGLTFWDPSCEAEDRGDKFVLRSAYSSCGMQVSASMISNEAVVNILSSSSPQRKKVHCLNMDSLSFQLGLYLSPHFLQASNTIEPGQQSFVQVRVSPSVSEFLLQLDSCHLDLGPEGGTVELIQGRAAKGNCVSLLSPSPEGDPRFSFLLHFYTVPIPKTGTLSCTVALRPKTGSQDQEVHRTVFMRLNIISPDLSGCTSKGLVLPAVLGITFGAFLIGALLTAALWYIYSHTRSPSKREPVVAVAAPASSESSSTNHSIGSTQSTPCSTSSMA

- binding [1]: binds
- binding [2]: binds
B1: bone morphogenetic protein 9 (BMP9) (ligand, UniProt Q9UK05 320-429)
chain: SAGAGSHCQKTSLRVNFEDIGWDSWIIAPKEYEAYECKGGCFFPLADDVTPTKHAIVQTLVHLKFPTKVGKACCVPTKLSPISVLYKDDMGVPTLKYHYEGMSVAECGCR
